No constants are given. Whether binding was seen depends on the method and setting. Some binding calls cover weakened binding; strength is not graded here.

Sequences of proteins named here, by UniProt entry; tags and fusion partners are left off. Residues count along the entry.
UniProt Q9Z139, residues 30-403: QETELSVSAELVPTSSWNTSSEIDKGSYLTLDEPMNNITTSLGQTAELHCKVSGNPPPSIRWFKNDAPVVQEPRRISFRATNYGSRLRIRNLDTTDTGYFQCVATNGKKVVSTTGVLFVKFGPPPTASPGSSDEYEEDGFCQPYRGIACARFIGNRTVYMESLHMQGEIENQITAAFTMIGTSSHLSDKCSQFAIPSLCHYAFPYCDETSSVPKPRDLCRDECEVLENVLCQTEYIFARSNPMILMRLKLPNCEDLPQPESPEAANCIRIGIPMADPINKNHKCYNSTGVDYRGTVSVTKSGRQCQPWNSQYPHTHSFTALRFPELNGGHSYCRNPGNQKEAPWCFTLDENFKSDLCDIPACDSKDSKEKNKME

Assay [1] concerns the target mouse ROR1 (coated on ELISA plate) (mouse) (UniProt Q9Z139). Nature of the assay: ELISA (FIG. 2B legend). (In general: ELISA stands for enzyme-linked immunosorbent assay.)
Assay [2] shares this target. Nature of the assay: ELISA, plate coated with mouse ROR1, IgG1 detected with HRP anti-human IgG.

B1: anti-ROR1 antibody clone G6 (antibody, V domains shown)
VH: EVQLVESGGGVVQPGGSLRLSCAASGFTFDDYAMHWVRQAPGKGLEWVSLISGDGGSTYYADSVKGRFTISRDNAKNSLYLQMNSLRAEDTAVYYCARDNWNDVYYYYGMDVWGQGTTVTVSS
VL: DIQLTQSPSSLSASIGDTVTISCQASRDISDYLNWYQHKPGKAPKLLIYDASNLATGVPSRFSGSGSGTDFTLTIKSLQPEDVATYFCQQDDLLPLTFGGGTKVDIK
On to B1, for which the binding entry in assay [1] and in assay [2] was “binds” throughout.

B2: anti-ROR1 antibody clone C3 (antibody, V domains shown)
VH: QVQLQESGPGLVKPSETLSLTCTVSGGSISSYYWSWIRQLPGKGLEWIGYMHYSGSTSYNPSLKGRLTISVDTSTNQFSLKLGSVTAADTAVYYCARYYYHDSSGYYSYFDYWGQGTLVTVSS
VL: EIVLTQSPGTLSLSPGERATLSCRASQSVSSYLAWYQQKAGQAPRLLIYDASNRASGIPARFSGSGSGTDFTLTISSLEPEDFAVYYCQQRSNWPPTFGGGTKVEIK
As for B2, the binding result in assay [1] and in assay [2] was “binds” throughout.

The values above are taken from US20220356246A1.
